Measured values taken from PubChem BioAssay AID2685 (National Center for Advancing Translational Sciences (NCATS), 2010).
The list shows a part of the results. These are further read-outs of the screen, such as a control signal, another cell line or another target. No call is given for them. Most of these compounds were active or inconclusive in the main read-out, so they are no random draw. Potencies come from curve fits of mixed quality, noted in brackets.

Assay: qHTS Assay for Lipid Storage Modulators in Drosophila S3 Cells;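 as to cell number change: cells counted by Cell Tracker Red CMTPX staining in the red channel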
Details: BODIPY lipid droplet fluorescence, 18-24 h; for cell number change: measured here: cell count max response, cells fed with added oleic acid
Procedure, shortened: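 Drosophila S3 cells loaded with oleic acid (400 uM, as added) and compounds at several concentrations; lipid droplets imaged by 488-nm laser-scanning cytometry, 500–530 nm intensity and object ratio to cell channel. Percent activity normalized to 20 uM Triacsin C.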

[1] = measured here: lipid fluorescence (Fed channel) AC50, cells fed with added oleic acid
[2] = measured here: cell number channel AC50, cells fed with added oleic acid

SMILES | cell number change [%] | AC50 [1] | AC50 [2]
COC(=O)[C@H](C)NC(=O)Nc1ccc(OC)cc1OC | -5.02 | – | –
COc1ccc(-c2ccc(SCC(=O)c3ccc(F)cc3)nn2)cc1OC | – | 92 nM [falling, full curve, poor fit] | –
COc1ccc(NC(=O)C(C)N2C(=O)c3ccccc3S2(=O)=O)c(OC)c1 (centres undefined) | – | 411 nM [rising, single point] | –
COc1ccc(OC)c(S(=O)(=O)NCC(c2ccc(F)cc2)N2CCN(C)CC2)c1 (centres undefined) | 6.34 | 651 nM [falling, single point] | –
COc1cccc(-c2cc(C(F)(F)F)nc(-n3cc(Cl)cn3)n2)c1 | – | 1640 nM [rising, partial curve] | 291 nM [rising, full curve]
Cc1ccc(NC(=O)c2ccc(COc3ccc4c(c3)CCC4)cc2)c(C)c1 | -51.3 | 5800 nM [falling, partial curve] | 7310 nM [falling, partial curve]
O=C1NCCCC1C(=O)N/N=C/c1ccccc1 (centres undefined) | -24.1 | 4110 nM [falling, full curve, poor fit] | 164 nM [falling, full curve, poor fit]
Cc1cc(C(=O)CSc2nc3ccccc3[nH]2)c(C)n1CC1CCCO1 (centres undefined) | -36 | 184 nM [falling, full curve, poor fit] | 11600 nM [falling, partial curve, poor fit]
COc1ccc(Oc2nc(-c3cccnc3)nc3ccccc23)cc1 | 11 | 2590 nM [rising, single point] | 4.61 nM [rising, full curve, poor fit]
CCN1CCN(Cc2nc3c(c(=O)n(C)c(=O)n3C)n2Cc2ccccc2Cl)CC1 | 19 | 291 nM [falling, full curve, poor fit] | –
CCCn1c(N)c(NCCN2CCOCC2)c(=O)[nH]c1=O | -37.4 | 25900 nM [falling, partial curve, poor fit] | 11600 nM [falling, single point]
O=C1CC(N2CCSCC2)C(=O)N1c1ccccc1 (centres undefined) | – | 184 nM [rising, full curve, poor fit] | –
O=C(NCc1ccccc1)c1ccc(NS(=O)(=O)c2cccs2)cc1 | -7.09 | 20600 nM [falling, single point] | –
CCn1nc(C(=O)Nc2ccccc2C)c(Cl)c1Cl | 22.4 | – | –
O=C(COC(=O)c1cncc(Br)c1)Nc1ccc(N2CCCCC2)cc1 | – | 920 nM [falling, full curve, poor fit] | –
O=C(N/N=C/c1cccs1)c1cccc(S(=O)(=O)Nc2ccc(Cl)cc2)c1 | -16.6 | – | –
CC(=O)c1ccc(NC2OC(CO)C(O)C(O)C2O)cc1 (centres undefined) | – | 29100 nM [falling, partial curve] | –
CC(C)C(=O)OCCN=C1NS(=O)(=O)c2ccccc21 | -31.8 | 731 nM [rising, full curve] | 231 nM [falling, full curve]

SMILES | cell number change [%] | AC50 [1] | AC50 [2]
CCOC(=O)c1c(C)oc2ccc(OCc3cc(C(=O)OC)oc3C)cc12 | 71 | – | 18400 nM [rising, single point]
Cc1ccc(C(=O)N(C)CCOc2ccccc2)cc1S(=O)(=O)N1CCOCC1 | 0.268 | 5800 nM [rising, single point] | –
O=C(NCc1ccccc1Cl)c1ccc(-c2ccccc2)cc1 | 10.4 | 29100 nM [rising, single point] | –
O=C(COc1cccnc1[N+](=O)[O-])N1CCc2ccccc2C1 | – | 6510 nM [rising, partial curve, poor fit] | 92 nM [rising, full curve]
COC(=O)c1ccc(NC(=O)C2CCCN(S(C)(=O)=O)C2)cc1 (centres undefined) | – | – | 6510 nM [rising, single point]
CCN(CC)S(=O)(=O)c1ccc(C(=O)OCC(=O)NC2CCCC2)cc1 | 85.2 | 92 nM [rising, full curve, poor fit] | 1840 nM [rising, partial curve, poor fit]
Cc1ccc(NC(=O)c2nsc(Cl)c2Cl)cc1 | 6.02 | 2910 nM [falling, partial curve] | 4110 nM [falling, single point]
CCCc1ccc2oc(C(=O)N3CCC(COC)C3)c(C)c2c1 (centres undefined) | -12.9 | – | –
Cc1ccc(N2CCN(C(=S)Nc3ccccc3C)CC2)cc1 | 31.4 | 29100 nM [rising, single point] | –
CSC1=NSC2=NC(=O)/C(=C/c3coc4ccc(O)cc4c3=O)C(=N)N12 | 117 | – | 29100 nM [rising, single point]
O=C(CCCCCNC(=O)N1CCn2c1nc1ccccc12)N[C@@H](Cc1ccccc1)C(=O)O | 1.94 | – | –
COCCCNc1oc(COc2ccc(Cl)cc2Cl)nc1C#N | 20.7 | 146 nM [rising, full curve, poor fit] | –
COC(=O)c1cccc(COC(=O)c2ccc(CS(=O)(=O)c3ccc(C)cc3)cc2)c1 | 1.56 | – | –
Oc1ccc(C[C@H]2CNCCN2CCC23CC4CC(CC(C4)C2)C3)cc1 | -41.2 | – | 25900 nM [falling, single point]
Cc1cc2c(cc1S(=O)(=O)NCC(C)c1ccccc1)n(C)c(=O)c(=O)n2C (centres undefined) | -20.5 | 6510 nM [falling, partial curve] | –
COc1cc2c(cc1NC(=S)Nc1cccc(C)c1)oc1ccccc12 | 38.6 | 411 nM [rising, partial curve, poor fit] | 517 nM [rising, full curve]
CCCCc1nc(SCC(=O)N2CCCC2)c2c(=O)n(C)c(=O)n(C)c2n1 | -50 | 7080 nM [falling, partial curve] | 10000 nM [falling, partial curve]
CC[C@@H](C)C(NC(=O)OC(C)(C)C)c1cn([C@@H](CCC(=O)OC(C)(C)C)C(=O)N2CCN(C(=O)OC(C)(C)C)CC2)nn1 (some centres undefined) | – | 1300 nM [falling, full curve, poor fit] | –

Some of the entries so far, with each value named.
Cc1ccc(NC(=O)c2nsc(Cl)c2Cl)cc1
  cell number change [%]: 6.02
  AC50 [1]: 2910 nM [falling, partial curve]
  AC50 [2]: 4110 nM [falling, single point]
CCCc1ccc2oc(C(=O)N3CCC(COC)C3)c(C)c2c1 (centres undefined)
  cell number change [%]: -12.9
